Results taken from the M2OR odorant receptor database.
Only a part is listed here, and it is no random draw. Calls are pooled over several reports, among them a noisy single-well screen. The list shows a part of the results. The list shows a part of the results.

Protein sequences, listed by entry. Tags and fused reporters are not part of them. Lines headed by an entry give the natural chain unless they say otherwise; changes in a name come on top.
UniProt Q6IEZ7: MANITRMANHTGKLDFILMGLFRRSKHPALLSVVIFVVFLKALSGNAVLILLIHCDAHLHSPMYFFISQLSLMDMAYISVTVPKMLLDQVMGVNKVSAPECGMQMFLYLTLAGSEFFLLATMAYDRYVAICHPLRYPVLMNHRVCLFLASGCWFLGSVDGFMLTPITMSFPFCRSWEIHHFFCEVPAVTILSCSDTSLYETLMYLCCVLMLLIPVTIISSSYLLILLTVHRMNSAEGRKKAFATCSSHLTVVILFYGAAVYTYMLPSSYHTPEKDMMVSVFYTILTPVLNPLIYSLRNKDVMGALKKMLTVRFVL
UniProt Q8NHC8: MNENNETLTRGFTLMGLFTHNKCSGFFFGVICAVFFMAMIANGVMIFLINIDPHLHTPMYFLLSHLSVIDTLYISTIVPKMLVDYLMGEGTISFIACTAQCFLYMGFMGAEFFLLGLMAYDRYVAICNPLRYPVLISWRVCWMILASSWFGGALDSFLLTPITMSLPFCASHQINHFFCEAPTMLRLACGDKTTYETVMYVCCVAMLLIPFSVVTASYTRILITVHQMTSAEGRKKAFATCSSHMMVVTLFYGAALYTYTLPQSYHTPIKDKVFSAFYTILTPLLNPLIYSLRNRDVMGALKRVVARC
UniProt P0C7T2: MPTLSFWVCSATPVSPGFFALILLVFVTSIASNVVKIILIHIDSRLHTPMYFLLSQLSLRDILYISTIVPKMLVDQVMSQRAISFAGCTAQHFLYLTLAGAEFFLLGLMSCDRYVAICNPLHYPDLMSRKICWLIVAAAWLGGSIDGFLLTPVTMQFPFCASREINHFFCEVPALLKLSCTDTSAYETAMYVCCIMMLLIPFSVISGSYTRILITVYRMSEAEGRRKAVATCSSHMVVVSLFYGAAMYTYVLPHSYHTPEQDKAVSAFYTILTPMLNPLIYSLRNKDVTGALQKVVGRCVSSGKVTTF

Tests used:
Conditions in all cases: stereoisomer not certain
[1] = test system: T1, OR2T5
T1 sequence (whole entry): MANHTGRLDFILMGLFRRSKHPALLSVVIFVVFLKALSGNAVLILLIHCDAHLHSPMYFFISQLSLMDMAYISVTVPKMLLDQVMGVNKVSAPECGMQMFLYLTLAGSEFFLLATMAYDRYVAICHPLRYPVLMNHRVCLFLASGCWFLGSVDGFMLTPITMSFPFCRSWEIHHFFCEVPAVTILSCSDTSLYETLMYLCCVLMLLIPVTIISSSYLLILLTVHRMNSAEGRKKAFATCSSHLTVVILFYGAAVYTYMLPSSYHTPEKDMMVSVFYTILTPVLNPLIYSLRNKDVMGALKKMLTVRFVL
Method in brief: (§1)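 Transient luciferase assays in mammalian cell lines were common, though methods varied by source. The values come from published papers and their supplementary material, with extra details from the original authors when needed. Responsive refers to a measured signal the original authors judged statistically different from baseline, and non-responsive (inactive) to the remainder.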

[2] = test system: T2, OR2T6
T2 sequence (whole entry): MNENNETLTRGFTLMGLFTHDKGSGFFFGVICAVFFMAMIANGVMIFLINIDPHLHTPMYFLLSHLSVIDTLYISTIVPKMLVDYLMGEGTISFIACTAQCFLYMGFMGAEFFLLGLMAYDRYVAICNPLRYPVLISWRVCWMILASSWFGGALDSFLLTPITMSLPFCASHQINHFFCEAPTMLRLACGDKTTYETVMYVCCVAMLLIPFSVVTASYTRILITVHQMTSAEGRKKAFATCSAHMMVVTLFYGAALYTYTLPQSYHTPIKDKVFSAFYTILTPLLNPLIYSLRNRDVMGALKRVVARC
Method in brief: as §1

[3] = test system: T3, OR2T8
T3 sequence (whole entry): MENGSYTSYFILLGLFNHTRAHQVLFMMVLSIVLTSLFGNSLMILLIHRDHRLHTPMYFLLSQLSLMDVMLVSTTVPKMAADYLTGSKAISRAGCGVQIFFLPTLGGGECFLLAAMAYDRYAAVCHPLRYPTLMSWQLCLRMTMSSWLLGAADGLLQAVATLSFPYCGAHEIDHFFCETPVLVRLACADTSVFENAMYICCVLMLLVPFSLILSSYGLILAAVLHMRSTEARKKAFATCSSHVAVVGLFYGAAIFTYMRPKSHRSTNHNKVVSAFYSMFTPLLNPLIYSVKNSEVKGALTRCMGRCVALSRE
Method in brief: as §1

[4] = test system: T4, OR2V1
T4 sequence (whole entry): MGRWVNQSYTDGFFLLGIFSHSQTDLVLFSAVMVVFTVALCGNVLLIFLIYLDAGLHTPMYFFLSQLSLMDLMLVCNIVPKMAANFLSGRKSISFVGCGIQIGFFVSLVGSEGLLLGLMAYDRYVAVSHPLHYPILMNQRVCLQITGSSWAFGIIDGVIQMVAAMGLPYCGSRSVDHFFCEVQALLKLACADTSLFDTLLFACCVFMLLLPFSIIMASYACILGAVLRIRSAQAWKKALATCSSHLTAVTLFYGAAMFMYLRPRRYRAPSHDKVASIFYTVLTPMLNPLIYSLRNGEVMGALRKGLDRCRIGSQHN
Method in brief: as §1

[5] = test system: T5, OR2V2
T5 sequence (whole entry): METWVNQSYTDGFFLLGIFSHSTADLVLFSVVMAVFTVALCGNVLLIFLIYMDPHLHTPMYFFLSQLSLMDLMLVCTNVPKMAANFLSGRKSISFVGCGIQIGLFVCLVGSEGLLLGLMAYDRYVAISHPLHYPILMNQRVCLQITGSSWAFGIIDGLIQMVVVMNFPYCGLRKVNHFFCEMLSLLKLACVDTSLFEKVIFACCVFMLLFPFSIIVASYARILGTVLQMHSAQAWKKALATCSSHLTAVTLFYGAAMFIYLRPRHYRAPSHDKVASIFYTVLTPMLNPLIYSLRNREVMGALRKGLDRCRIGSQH
Method in brief: as §1

[6] = target: T6, OR2W1 (Homo sapiens) (UniProt Q9Y3N9)
T6 sequence (whole entry): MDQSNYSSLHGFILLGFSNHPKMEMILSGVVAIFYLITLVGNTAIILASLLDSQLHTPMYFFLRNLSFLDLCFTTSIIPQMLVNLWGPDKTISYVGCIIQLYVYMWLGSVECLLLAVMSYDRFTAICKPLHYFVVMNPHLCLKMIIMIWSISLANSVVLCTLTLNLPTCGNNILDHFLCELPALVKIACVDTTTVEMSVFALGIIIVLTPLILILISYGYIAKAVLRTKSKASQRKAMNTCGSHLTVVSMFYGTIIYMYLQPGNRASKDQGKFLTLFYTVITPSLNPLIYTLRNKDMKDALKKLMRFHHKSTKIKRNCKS
Method in brief: as §1

[7] = target: OR2T5 (Homo sapiens) (UniProt Q6IEZ7)
Method in brief: as §1

[8] = target: OR2T6 (Homo sapiens) (UniProt Q8NHC8)
Method in brief: as §1

[9] = target: OR2T7 (Homo sapiens) (UniProt P0C7T2)
Method in brief: as §1

[10] = target: OR2V2 (Homo sapiens) (UniProt Q96R30)
Method in brief: as §1

Measured: odorant receptor agonist call

CC12C=CCC1C1CCC3=CC(=O)CCC3(C)C1CC2 (configuration not stated)
inactive: [1] | [2] | [3] | [4] | [5] | [6]

CC=Cc1ccc(O)c(OC)c1
inactive: [1] | [2]
active: [3] | [4] | [5] | [6]

CC12C=CCC1C1CCC3CC(=O)CCC3(C)C1CC2 (configuration not stated)
inactive: all assays above

CCCCCCCC=CC=O
inactive: [1] | [2] | [3] | [4] | [5]

CC(C)(C)c1ccc(CCC=O)cc1
inactive: [1] | [2] | [3] | [4] | [5] | [6]

C=CCc1ccc(OC)c(OC)c1
inactive: [1] | [2] | [3] | [4] | [5]

C=CCSCC=C
active: [6]
inactive: [1] | [2] | [3] | [4] | [5]

c1cnccn1
active: [6]
inactive: [1] | [2] | [3] | [4] | [5]

CC12CCC(CC1)C(C)(C)O2
inactive: [1] | [2] | [3] | [4] | [5]
active: [6]

CCCCCOC(C)=O
inactive: [1] | [2] | [3] | [4] | [5] | [6]

COc1cc(C)ccc1O
inactive: [1] | [2] | [3] | [4] | [5]

CC12CCC(C1)C(C)(C)C2=O (configuration not stated)
inactive: [1] | [2] | [3] | [4] | [5] | [6]

CCCCCCCC=O
inactive: [1] | [2] | [3] | [4] | [5]
active: [6]

CC(C)=CCCC(C)=CC=O
inactive: [1] | [2] | [3] | [4] | [5] | [6]

CC(C)C(=O)O
inactive: [1] | [2] | [3] | [4] | [5] | [6]

CCCCO
inactive: [1] | [2] | [3] | [4] | [5]

CCCC(=O)O
inactive: [1] | [2] | [3] | [4] | [5] | [6]

CCCCCCCCCCC=O
inactive: [1] | [2] | [3] | [4] | [5]
active: [6]

CC(=O)OC(C)(C)C1CC=C(C)CC1 (configuration not stated)
inactive: [1] | [2] | [3] | [4] | [5] | [6]

CC(C)CC(=O)O
inactive: [1] | [2] | [3] | [4] | [5] | [6]

CCCCCCOC(=O)CCC
inactive: [1] | [2] | [3] | [4] | [5] | [6]

O=CCc1ccccc1
inactive: [1] | [2] | [5] | [6]
active: [3] | [4]

CC(=O)C(C)=O
inactive: [1] | [2] | [3] | [4] | [5]

COc1cc(C=O)ccc1O
inactive: [1] | [2] | [3] | [4] | [5]

CCC1(O)C2(C)CCC(C2)C1(C)C (configuration not stated)
active: [6]
inactive: [1] | [2] | [3] | [4] | [5]

COc1ccccc1O
inactive: [1] | [2] | [3] | [4] | [5] | [6]

CC(=O)OC1CC2CCC1(C)C2(C)C (configuration not stated)
inactive: [1] | [2] | [3] | [4] | [5] | [6]

CCCCCCCCCC=O
inactive: [1] | [2] | [3] | [4] | [5] | [6]

CCCCCCCCC=O
active: [6]

CC1=NC(C)SC1C (configuration not stated)
inactive: [1] | [2] | [5] | [6]

C=CC(C)(O)CCC=C(C)C (configuration not stated)
active: [6]
inactive: [1] | [2] | [3] | [4] | [5]

CC(=O)c1ccccc1
active: [6]
inactive: [1] | [2] | [5]

CCCCCCC=O
active: [6]

CCC=CCCO
inactive: [1] | [2] | [3] | [4] | [5] | [6]

CC(C)C=O
inactive: [1] | [2] | [3] | [4] | [5] | [6]

CCCCCCCCOC(C)=O
inactive: [1] | [2] | [3] | [4] | [5] | [6]

COC(=O)c1ccccc1
inactive: [1] | [2] | [5]
active: [6]

O=C1CCCCC1
inactive: [1] | [2] | [5] | [6]

CC(=O)OCC=C(C)CCC=C(C)C
inactive: [1] | [2] | [4] | [5]
active: [3] | [6]

CCCCCCCOC(C)=O
inactive: [1] | [2] | [3] | [4] | [5]
active: [6]

CC(C)(O)CCCC1=CCC(C=O)CC1 (configuration not stated)
inactive: [3] | [4] | [6]

COC(=O)c1ccccc1O
inactive: [1] | [2] | [3] | [4] | [5] | [6]

O=C1CCCCCCCCCCCCCCO1
inactive: [1] | [2] | [3] | [4] | [5] | [6]

CC1COCc2cc3c(cc21)C(C)(C)C(C)C3(C)C (configuration not stated)
inactive: [4] | [6]
active: [1] | [2] | [3] | [5]

CCCCCC(C)=O
inactive: [1] | [2] | [5]
active: [6]

C=CCc1ccc(OC(C)=O)c(OC)c1
active: [3] | [4] | [6]
inactive: [1] | [2] | [5]

CC1CCC(C(C)C)C(O)C1 (configuration not stated)
inactive: [2] | [3] | [4] | [5]
active: [1] | [6]

C=CCc1ccc(O)c(OC)c1
inactive: [6]

Random excerpt: 2 entries already listed.
C=CCc1ccc(OC)c(OC)c1
inactive: [1] | [2] | [3] | [4] | [5]

CC(C)CC(=O)O
inactive: [1] | [2] | [3] | [4] | [5] | [6]

Carrying on.

CC1=CCC(C(C)(C)O)CC1 (configuration not stated)
active: [6]
inactive: [1] | [2] | [3] | [4] | [5]

CC(C)CCC(=O)O
inactive: [1] | [2] | [3] | [4] | [5]
active: [6]

CCCCCC(=O)O
inactive: [1] | [2] | [3] | [4] | [5] | [6]

C=C(C)C1CCC2=CC(=O)CC(C)C2(C)C1 (configuration not stated)
inactive: [3] | [4] | [6]

c1ccc(Oc2ccccc2)cc1
inactive: [1] | [2] | [3] | [4] | [5] | [6]

O=C1CCCCCCCCCCCC(=O)OCCO1
active: [4]
inactive: [1] | [2] | [3] | [5] | [6]

C=C(C)C1CC=C(C)C(=O)C1 (configuration not stated)
active: [6]
